PubChem BioAssay AID493014 (National Center for Advancing Translational Sciences (NCATS), 2011)
The list shows a part of the results. Further columns of the screen follow, without active or inactive calls. Most of these compounds were active or inconclusive in the main read-out, so they are no random draw. The note in brackets gives the kind of curve behind each potency; many fits are weak.

Test: qHTS Assay to Find Inhibitors of Chronic Active B-Cell Receptor Signaling
Conditions: ABC-DLBCL IkBa-CBG/CBR reporter, luminescence ratio (green luciferase fused to IkBa over red control in TMD8 lymphoma cells), 4 h
Summary of the method: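 Concentration-response series (up to 46 uM) were applied to TMD8 dual-reporter cells for 4 h at 37C with doxycycline. Green/red ratio, after filter-overlap correction, defined %Activity; red signal alone was normalised to basal cells and zero luminescence.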

[1] = measured here: CBR red luminescence, cell number
[2] = measured here: IkBa-CBG green luminescence

With `N=c1oc2ccccc2cc1-c1nc(-c2ccc(Cl)cc2)cs1` the AC50 [1] was 14.6 µM [falling, single point].

In the case of `O=c1ccc2ccc(OCCOc3cccc(Cl)c3)cc2o1`, the AC50 [1] is reported as 1.41 µM [rising, partial curve, poor fit].

With `COc1ccccc1-c1ccc(SCc2ccc([N+](=O)[O-])cc2)nn1` the AC50 [1] was 22.4 µM [falling, single point].

With `O=C(CCNC(=O)c1ccc([N+](=O)[O-])cc1)NC1CCCCCC1` the AC50 [1] was 3.66 µM [falling, full curve].

With `CC(C)c1ccc(/C=C/c2[nH]c(=O)[nH]c(=O)c2[N+](=O)[O-])cc1` the AC50 [1] was 3.55 µM [rising, single point].

With `CNC(=O)c1ccsc1NC(=O)CCS(=O)(=O)c1ccc(F)cc1` the AC50 [1] was 32.6 µM [falling, single point].

With `CC(C)(C)NC(=O)N1CCN(c2nc3ccc(Cl)cc3s2)CC1` the AC50 [1] was 12.6 µM [rising, partial curve, poor fit].

For `Cc1cc(C)cc(Oc2ncnc3c2ncn3Cc2c(Cl)cccc2Cl)c1`, the AC50 [1] was 29.1 µM [falling, single point].

In the case of `CCCCC(c1nnnn1C1CCCC1)N1CCN(C(=O)c2ccco2)CC1` (configuration not stated), the AC50 [1] is reported as 20.6 µM [rising, single point].

In the case of `COCCCN(C(=O)c1ccco1)c1nc(-c2cc(OC)ccc2OC)cs1`, the AC50 [1] is reported as 0.398 µM [rising, full curve].

With `COC(=O)c1c(C)oc2ccc(NS(=O)(=O)c3cccs3)cc12` the AC50 [1] was 2.59 µM [falling, partial curve].

In the case of `Cc1cccn2c(=O)c3cc(C#N)c(=N)n(CCN4CCOCC4)c3nc12`, the AC50 [1] is reported as 4.11 µM [falling, full curve, poor fit].

With `CC(C)c1cccc(OCC(=O)Nc2ccc(S(=O)(=O)Nc3ccccn3)cc2)c1` the AC50 [1] was 0.501 µM [rising, full curve, poor fit].

With `Cc1nn2c(nc1=O)NNC2(C)C(C)(C)C` (configuration not stated) the AC50 [1] was 20 µM [falling, partial curve, poor fit] and the AC50 [2] was 35.5 µM [falling, single point].

For `C[C@]12C=CC(=O)C=C1CC[C@@H]1C2[C@@H](O)C[C@@]2(C)C1CC[C@]2(O)C(=O)COC(=O)CCC(=O)O` (some centres not stated), the AC50 [1] was 0.251 µM [rising, full curve, poor fit].

For `Cc1ccc2nc(NC(=O)C3CSC4(C)CCC(=O)N34)sc2c1` (configuration not stated), the AC50 [1] was 4.11 µM [falling, partial curve].

With `CC[C@]12c3[nH]c4ccccc4c3CCN1C(=O)C(CC(=O)NCC13CC4CC(CC(C4)C1)C3)C[C@@H]2C(=O)N1CCN(C(=O)c2ccco2)CC1` (some centres not stated) the AC50 [1] was 23.1 µM [falling, partial curve, poor fit].

With `O=C(c1cc2ccccc2o1)N1CCN(C/C=C/c2ccccc2)CC1` the AC50 [1] was 12.6 µM [falling, partial curve, poor fit].

In the case of `OCCC1CN(Cc2ccccn2)CCN1C1CCCC1` (configuration not stated), the AC50 [1] is reported as 0.501 µM [rising, full curve, poor fit].

With `CCCCCC1(C(=O)OCC)CC(CSC(=N)N)OC1=O` (configuration not stated) the AC50 [1] was 35.5 µM [falling, partial curve, poor fit].

With `O=C(OCc1ccc(F)cc1)c1cc(=O)c2ccccc2o1` the AC50 [1] was 8.91 µM [rising, partial curve, poor fit].

With `COc1ccc(CN(CC2CCC(C(=O)O)CC2)C(=S)Nc2ccc(C)c(Cl)c2)cc1` (configuration not stated) the AC50 [1] was 10 µM [falling, partial curve, poor fit].

With `CCOC(=O)c1[nH]c2cc(OC)c(OC)cc2c1NC(=O)CN1CCN(c2ccc(OC)cc2)C(C)C1` (configuration not stated) the AC50 [1] was 0.0366 µM [rising, full curve, poor fit].

For `CC(C)NC(=S)N/N=C1\CCCCC1C1CCCCC1` (configuration not stated), the AC50 [1] was 16.4 µM [rising, partial curve, poor fit].

In the case of `O=C(CSc1ccc2c(c1)OCCO2)Nc1ncccc1O`, the AC50 [1] is reported as 13 µM [falling, partial curve, poor fit].

With `CN1C(=O)c2c(sc3c2CC(C)(C)SC3)N2CCN=C12` the AC50 [1] was 20 µM [falling, single point] and the AC50 [2] was 11.2 µM [falling, partial curve, poor fit].

In the case of `CC(=O)Nc1ccc(NC2=Nc3ccccc3N3C2=Nc2c(c(C)nn2-c2ccccc2)C3c2ccccc2)cc1` (configuration not stated), the AC50 [1] is reported as 0.708 µM [falling, full curve, poor fit].

With `CN1CSC2=C(C#N)C(c3cccc(OCc4ccccc4)c3)CC(=O)N2C1` (configuration not stated) the AC50 [1] was 35.5 µM [rising, single point] and the AC50 [2] was 35.5 µM [falling, single point].

For `CCOC(=O)C1CCCN(c2c(NCCCN3CCCC(C)C3)c(=O)c2=O)C1` (configuration not stated), the AC50 [1] was 29.1 µM [rising, single point].
